According to patent US11312737B2, “Amide-linked EP4 agonist-bisphosphonate compounds and uses thereof” (SIMON FRASER UNIVERSITY, priority 2015, dated 2022):
Some of these results come from one statement about several compounds together.

Experiment: Stability of conjugate compounds in rat plasma
Details: fresh rat plasma, 37° C., 100 μg/mL

SMILES | hydrolysis after 24 h-incubation
CCOC(=O)CCCCCCN1C(=O)CC[C@@H]1/C=C/[C@@H](OC(=O)Cc1ccc(C(=O)NCCC(O)(P(=O)(O)O)P(=O)(O)O)cc1)C(F)(F)c1ccccc1 [C4-conjugate, Sodium (3-(4-(2-(((R,E)-4-((R)-1-(7-ethoxy-7-oxoheptyl)-5-oxopyrrolidin-2-yl)-1,1-difluoro-1-phenylbut-3-en-2-yl)oxy)-2-oxoethypbenzamido)-1-hydroxypropane-1,1-diyl)bis(hydrogen phosphonate)] | less than 5%
CCOC(=O)CCCCCCN1C(=O)CC[C@@H]1/C=C/[C@@H](OC(=O)Cc1ccc(C(=O)NCCCCCC(O)(P(=O)(O)O)P(=O)(O)O)cc1)C(F)(F)c1ccccc1 [C5-conjugate, Sodium (6-(4-(2-(((R,E)-4-((R)-1-(7-ethoxy-7-oxoheptyl)-5-oxopyrrolidin-2-yl)-1,1-difluoro-1-phenyibut-3-en-2-yl)oxy)-2-oxoethyl)benzamido)-1-hydroxyhexane-1,1-diyl)bis(hydrogen phosphonate)] | less than 5%
